Part of at least one peptide drawing is inferred or uncertain, most often the ends. Where a SMILES comes first, the peptide text is derived from it.
Assays:
rat adipocytes = type: cell-based
Protocol: Preparation of Adipocytes--The procedure has been described in detail previously. Briefly, male Wistar rats (100-150 g) were decapitated, and the epididymal fat pads removed and minced with scissors into KRHB (Krebs-Ringer/HEPES/Bovine serum albumin (BSA) buffer: 80 mM NaCl, 4.7 mM KCl, 2.5 mM CaCl2, 1.2 mM MgSO4, 50 mM HEPES, 5% BSA (Sigma, radioimmunoassay grade), pH 7.2) containing 5 mM D-glucose and 1 mg/ml collagenase (type I, Worthington) and digested (1 hr, 37° C.) with gentle shaking (250 cycles per minute). The adipocytes were washed five times in KRHB (each wash in a volume ten times the cell volume). The adipocyte layer was finally diluted with KRHB to a 10% (v/v) suspension as estimated by the volume of packed cells (lipocrit).
Glucose uptake in vitro--The uptake of [^14 C]glucose (D-[U-^14 C]glucose, Amersham, (300 Ci/mol)) by isolated rat adipocytes was measured as follows unless otherwise stated: 50 μl adipocyte cell suspension was pipetted into "Nunc-Immuno tube minisorp" (Nunc, Denmark) and preincubated at 37° C. with gentle shaking (225 cycles per minute) for 30 min. Hormones and peptides were added in 50 μl KRHB and incubated for 30 min at 37° C. Before addition to cells, all solutions were neutralized to pH 7.2. [^14 C]glucose tracer (~100,000 dpm) was added and the incubation continued for another 20 minutes at 37° C. The assay was terminated by centrifugation of 100 μl sample on top of 250 μl silicone oil (Thomas Scientific) in 500 μl tubes in a microfuge (10,000×g) for 1 min. The tube was cut just below the adipocyte layer and the amount of radioactivity in the adipocytes determined by scintillation counting. The precise concentration of [^14 C]glucose was calculated from total counts added.

By UniProt entry, the sequences of proteins in these tests, tags left out. Residues count along the entry.
UniProt P15208, 28-748 limits assumed: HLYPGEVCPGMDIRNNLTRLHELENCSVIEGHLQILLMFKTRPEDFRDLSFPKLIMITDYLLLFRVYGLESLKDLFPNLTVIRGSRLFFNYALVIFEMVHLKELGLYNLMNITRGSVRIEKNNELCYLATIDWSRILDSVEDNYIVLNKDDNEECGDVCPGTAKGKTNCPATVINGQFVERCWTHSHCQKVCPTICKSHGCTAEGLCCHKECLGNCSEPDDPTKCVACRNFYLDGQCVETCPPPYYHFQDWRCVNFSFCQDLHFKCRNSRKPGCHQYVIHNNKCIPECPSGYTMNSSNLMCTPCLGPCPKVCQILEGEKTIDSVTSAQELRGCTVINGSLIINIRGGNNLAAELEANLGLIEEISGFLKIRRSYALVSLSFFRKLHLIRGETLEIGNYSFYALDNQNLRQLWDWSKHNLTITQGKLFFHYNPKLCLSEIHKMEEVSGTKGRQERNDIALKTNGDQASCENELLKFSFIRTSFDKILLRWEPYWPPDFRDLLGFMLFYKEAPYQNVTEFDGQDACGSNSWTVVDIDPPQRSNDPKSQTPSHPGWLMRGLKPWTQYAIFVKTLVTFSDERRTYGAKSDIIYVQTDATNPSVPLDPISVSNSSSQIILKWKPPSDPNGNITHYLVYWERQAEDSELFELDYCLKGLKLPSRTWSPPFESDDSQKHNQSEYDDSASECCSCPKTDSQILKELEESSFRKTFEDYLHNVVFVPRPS
UniProt P15208, 753-1372 limits assumed: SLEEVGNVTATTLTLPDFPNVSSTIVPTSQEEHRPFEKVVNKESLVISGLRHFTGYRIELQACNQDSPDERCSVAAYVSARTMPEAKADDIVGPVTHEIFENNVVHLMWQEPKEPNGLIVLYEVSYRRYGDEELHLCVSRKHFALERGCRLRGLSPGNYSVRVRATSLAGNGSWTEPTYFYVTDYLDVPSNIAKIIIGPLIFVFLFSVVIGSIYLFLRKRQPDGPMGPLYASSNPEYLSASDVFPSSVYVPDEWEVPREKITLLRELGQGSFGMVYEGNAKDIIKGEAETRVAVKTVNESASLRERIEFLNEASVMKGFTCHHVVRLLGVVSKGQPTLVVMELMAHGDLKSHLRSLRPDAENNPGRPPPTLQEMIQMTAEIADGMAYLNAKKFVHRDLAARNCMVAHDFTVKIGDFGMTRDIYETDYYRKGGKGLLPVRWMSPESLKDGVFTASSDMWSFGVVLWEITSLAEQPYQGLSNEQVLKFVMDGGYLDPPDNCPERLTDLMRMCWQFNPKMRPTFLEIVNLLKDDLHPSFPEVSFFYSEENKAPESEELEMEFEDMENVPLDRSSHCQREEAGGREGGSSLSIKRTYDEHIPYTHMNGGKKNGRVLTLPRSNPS
UniProt P06213, 28-758 limits assumed: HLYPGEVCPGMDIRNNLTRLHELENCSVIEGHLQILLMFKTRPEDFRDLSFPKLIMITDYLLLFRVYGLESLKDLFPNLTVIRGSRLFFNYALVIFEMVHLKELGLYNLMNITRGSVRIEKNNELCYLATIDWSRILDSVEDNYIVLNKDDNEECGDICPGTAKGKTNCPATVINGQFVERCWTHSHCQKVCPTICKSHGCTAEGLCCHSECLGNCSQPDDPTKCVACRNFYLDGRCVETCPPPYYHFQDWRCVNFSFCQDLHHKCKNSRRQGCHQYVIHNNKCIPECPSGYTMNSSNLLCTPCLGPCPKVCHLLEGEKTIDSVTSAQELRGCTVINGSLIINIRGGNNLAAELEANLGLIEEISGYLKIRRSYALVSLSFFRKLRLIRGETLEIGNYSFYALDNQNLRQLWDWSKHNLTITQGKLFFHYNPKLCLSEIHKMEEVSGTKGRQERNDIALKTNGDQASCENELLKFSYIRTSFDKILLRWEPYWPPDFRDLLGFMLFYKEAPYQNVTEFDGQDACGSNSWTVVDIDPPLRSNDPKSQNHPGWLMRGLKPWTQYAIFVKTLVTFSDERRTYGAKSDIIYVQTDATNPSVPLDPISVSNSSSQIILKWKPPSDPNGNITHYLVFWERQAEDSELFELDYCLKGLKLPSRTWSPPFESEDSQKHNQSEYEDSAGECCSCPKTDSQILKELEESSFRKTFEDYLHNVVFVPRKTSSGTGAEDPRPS
UniProt P06213, 763-1382 limits assumed: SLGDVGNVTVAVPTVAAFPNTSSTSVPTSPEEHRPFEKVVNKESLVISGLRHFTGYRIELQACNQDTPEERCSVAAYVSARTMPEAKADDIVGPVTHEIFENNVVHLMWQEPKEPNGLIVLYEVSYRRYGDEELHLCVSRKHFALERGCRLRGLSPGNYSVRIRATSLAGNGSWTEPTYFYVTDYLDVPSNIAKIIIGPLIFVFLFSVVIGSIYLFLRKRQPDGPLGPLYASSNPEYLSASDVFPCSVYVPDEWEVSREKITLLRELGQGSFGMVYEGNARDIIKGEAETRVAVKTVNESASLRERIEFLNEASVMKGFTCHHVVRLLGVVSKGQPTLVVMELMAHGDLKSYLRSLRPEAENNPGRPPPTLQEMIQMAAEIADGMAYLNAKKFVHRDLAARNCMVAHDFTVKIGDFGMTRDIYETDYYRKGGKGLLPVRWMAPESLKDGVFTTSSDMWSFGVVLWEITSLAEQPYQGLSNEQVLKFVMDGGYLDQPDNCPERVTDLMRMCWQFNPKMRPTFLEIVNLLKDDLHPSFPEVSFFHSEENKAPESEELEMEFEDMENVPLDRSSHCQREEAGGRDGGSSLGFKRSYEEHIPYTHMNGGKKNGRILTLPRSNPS

insulin receptor = insulin receptor (Mus musculus, UniProt P15208); assay: Specific 125I-insulin binding on murine cells with or without peptide; set-up: endogenous in cells; host or cells: P815 mastocytoma, R1E and R1E transfectants (transfected with H-2 genes, not with the receptor), LR335; conditions: for Relative Fold Increase with Peptide: insulin, versus no peptide; for Effect on hormone (insulin) binding on P815 mastocytoma cells: increasing amounts of peptide added to cells in culture
insulin receptors = molecular target: T1, insulin receptors (Homo sapiens, UniProt P06213); assay: Specific 125I-insulin binding on human lymphoblastoid lines with or without peptide; conditions: versus no peptide
T1 construct: endogenous in cells; host or cells: human EBV-transformed lymphoblastoid lines #1 and #2

EGF receptors = molecular target: T2, EGF receptors (Mus musculus, UniProt Q01279); assay: Specific 125I-EGF binding on LR335 fibrosarcoma with or without peptide; set-up: species or system murine
T2 construct: endogenous in cells; host or cells: LR335 murine fibrosarcoma

CC[C@H](C)[C@H](NC(=O)[C@H](CCC(N)=O)NC(=O)[C@H](C)NC(=O)[C@H](C)NC(=O)[C@H](CCSC)NC(=O)[C@@H](N)CC(=O)O)C(=O)N[C@H](C(=O)N[C@@H](CCCNC(=N)N)C(=O)N[C@@H](CCCNC(=N)N)C(=O)N[C@@H](CCCCN)C(=O)N[C@@H](Cc1c[nH]c2ccccc12)C(=O)N[C@@H](CCC(=O)O)C(=O)N[C@@H](CCC(N)=O)C(=O)N[C@@H](CO)C(=O)NCC(=O)N[C@@H](C)C(=O)N[C@@H](C)C(=O)N[C@@H](CCC(=O)O)C(=O)N[C@@H](Cc1c[nH]cn1)C(=O)N[C@@H](Cc1ccc(O)cc1)C(=O)N[C@@H](CCCCN)C(=O)N[C@@H](C)C(=O)N[C@@H](Cc1ccc(O)cc1)C(=O)N[C@@H](CC(C)C)C(=O)N[C@@H](CCC(=O)O)C(=O)O)[C@@H](C)O [D^b-(137-161)] (H-DMAAQITRRKWEQSGAAEHYKAYLE-OH)
Effect on glucose uptake when combined with EGF, compared to D^k -(61-85) (rat adipocytes): no or only a small effect

CC(C)C[C@H](NC(=O)[C@H](Cc1ccc(O)cc1)NC(=O)[C@H](C)NC(=O)[C@H](CCCCN)NC(=O)[C@H](Cc1ccc(O)cc1)NC(=O)[C@H](Cc1c[nH]cn1)NC(=O)[C@H](CCC(=O)O)NC(=O)[C@H](C)NC(=O)[C@H](C)N)C(=O)N[C@@H](CCC(=O)O)C(=O)NCC(=O)N[C@@H](CCC(=O)O)C(=O)N[C@@H](CS)C(=O)N[C@H](C(=O)N[C@@H](CCC(=O)O)C(=O)N[C@@H](Cc1c[nH]c2ccccc12)C(=O)N[C@@H](CC(C)C)C(=O)N[C@@H](Cc1c[nH]cn1)C(=O)N[C@@H](CCCNC(=N)N)C(=O)N[C@@H](Cc1ccc(O)cc1)C(=O)N[C@@H](CC(C)C)C(=O)N[C@@H](CCCCN)C(=O)N[C@@H](CC(N)=O)C(=O)NCC(=O)N[C@@H](CC(N)=O)C(=O)O)C(C)C [D^b-(152-176)] (H-AAEHYKAYLEGECVEWLHRYLKNGN-OH)
Effect on glucose uptake when combined with EGF, compared to D^k -(61-85) (rat adipocytes): no or only a small effect

CC[C@H](C)[C@H](NC(=O)[C@H](CCC(N)=O)NC(=O)[C@@H](NC(=O)[C@@H](NC(=O)[C@H](CCCNC(=N)N)NC(=O)[C@@H](N)CCC(=O)O)[C@@H](C)CC)[C@@H](C)O)C(=O)N[C@@H](C)C(=O)N[C@@H](CCCCN)C(=O)NCC(=O)N[C@@H](CCC(N)=O)C(=O)N[C@@H](CCC(=O)O)C(=O)N[C@@H](CCC(N)=O)C(=O)N[C@@H](Cc1c[nH]c2ccccc12)C(=O)N[C@@H](Cc1ccccc1)C(=O)N[C@@H](CCCNC(=N)N)C(=O)N[C@H](C(=O)N[C@@H](CC(N)=O)C(=O)N[C@@H](CC(C)C)C(=O)N[C@@H](CCCNC(=N)N)C(=O)N[C@H](C(=O)N[C@@H](CC(C)C)C(=O)N[C@@H](CC(C)C)C(=O)NCC(=O)N[C@@H](Cc1ccc(O)cc1)C(=O)N[C@@H](Cc1ccc(O)cc1)C(=O)O)[C@@H](C)O)C(C)C [L^d Peptide, ERITQIAKGQEQWFRVNLRTLLGYY (SEQ ID NO:13)] (H-ERITQIAKGQEQWFRVNLRTLLGYY-OH)
Relative Fold Increase with Peptide (insulin receptor; BALB/c Spleen): 150 Fold
Effect on hormone (insulin) binding on P815 mastocytoma cells (insulin receptor): significantly boosted
Relative Fold Increase with Peptide (insulin receptor; P815 Mastocytoma): 13.3 Fold
Enhancement of receptor activity (insulin binding) (insulin receptor; P815 cells): at least an order of magnitude
Relative Fold Increase with Peptide (insulin receptors; Lymphoblastoid #1, insulin): 1.6 Fold
Relative Fold Increase with Peptide (insulin receptors; Lymphoblastoid #2, insulin): 1.7 Fold
Relative Fold Increase with Peptide (EGF receptors; LR 335 Fibrosarcoma, EGF, versus no peptide): 0 Fold
% Bound/Free (hormone: EGF) (EGF receptors; LR 335 Fibrosarcoma, murine, hormone EGF, preincubated with peptide): 3.8%
Effect on epidermal growth factor (EGF) binding (EGF receptors; fibrosarcoma expressing EGF receptors): no effect

CC[C@H](C)[C@H](NC(=O)[C@H](CCC(N)=O)NC(=O)[C@@H](NC(=O)[C@@H](NC(=O)[C@H](CCCNC(=N)N)NC(=O)[C@@H](N)CCC(=O)O)[C@@H](C)CC)[C@@H](C)O)C(=O)N[C@@H](C)C(=O)N[C@@H](CCCCN)C(=O)NCC(=O)N[C@@H](CCC(N)=O)C(=O)N[C@@H](CCC(N)=O)C(=O)N[C@@H](Cc1c[nH]c2ccccc12)C(=O)N[C@@H](Cc1ccccc1)C(=O)N[C@@H](CCCNC(=N)N)C(=O)N[C@H](C(=O)N[C@@H](CC(N)=O)C(=O)N[C@@H](CC(C)C)C(=O)N[C@@H](CCCNC(=N)N)C(=O)N[C@H](C(=O)N[C@@H](CC(C)C)C(=O)N[C@@H](CC(C)C)C(=O)NCC(=O)N[C@@H](Cc1ccc(O)cc1)C(=O)N[C@@H](Cc1ccc(O)cc1)C(=O)O)[C@@H](C)O)C(C)C [reference compound] (H-ERITQIAKGQQWFRVNLRTLLGYY-OH)
Effect on hormone (insulin) binding on P815 mastocytoma cells (insulin receptor): unable to affect insulin binding
